Source: patent US7265201 (Takeda / Millennium, dated 2007)
Results are given in words; binding and its absence hold for the method and conditions named. Some entries that bind do so weakly or less than the wild type.

Chains of the proteins cited; added tags and fusions are not shown. Residues count along the entry.
UniProt P10147, residues 23-92: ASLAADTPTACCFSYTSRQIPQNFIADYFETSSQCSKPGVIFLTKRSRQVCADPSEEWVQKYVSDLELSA

Molecular target: T1, MIP-1α/RANTES receptor (probably CC CKR-1) on butyric acid differentiated HL-60 cells (human) (UniProt P32246)
T1 sequence (looked up): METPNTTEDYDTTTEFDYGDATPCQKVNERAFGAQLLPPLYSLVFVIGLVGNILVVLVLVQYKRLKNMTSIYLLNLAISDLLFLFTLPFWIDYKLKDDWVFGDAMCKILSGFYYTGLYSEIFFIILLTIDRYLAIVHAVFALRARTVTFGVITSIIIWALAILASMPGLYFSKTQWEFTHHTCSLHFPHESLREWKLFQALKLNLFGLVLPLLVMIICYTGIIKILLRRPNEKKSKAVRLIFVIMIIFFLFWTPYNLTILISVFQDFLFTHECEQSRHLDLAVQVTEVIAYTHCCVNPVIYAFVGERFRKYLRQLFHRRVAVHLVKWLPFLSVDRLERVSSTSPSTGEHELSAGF
Assay: 0.1 nM 125I-MIP-1α binding to butyric acid differentiated HL-60 cells

binding: binds
Substance: MIP-1α (from UniProt P10147 23-92) (ligand)
